Paper PMC6461963
These are yes or no findings as the source states them, for the method shown. Binding seen in cells or lysates may run through a third protein. Some results given as binding are weak or reduced against the parent protein; the word gives no strength.

Protein sequences, listed by entry. Tags and fused reporters are not part of them.
UniProt Q16531: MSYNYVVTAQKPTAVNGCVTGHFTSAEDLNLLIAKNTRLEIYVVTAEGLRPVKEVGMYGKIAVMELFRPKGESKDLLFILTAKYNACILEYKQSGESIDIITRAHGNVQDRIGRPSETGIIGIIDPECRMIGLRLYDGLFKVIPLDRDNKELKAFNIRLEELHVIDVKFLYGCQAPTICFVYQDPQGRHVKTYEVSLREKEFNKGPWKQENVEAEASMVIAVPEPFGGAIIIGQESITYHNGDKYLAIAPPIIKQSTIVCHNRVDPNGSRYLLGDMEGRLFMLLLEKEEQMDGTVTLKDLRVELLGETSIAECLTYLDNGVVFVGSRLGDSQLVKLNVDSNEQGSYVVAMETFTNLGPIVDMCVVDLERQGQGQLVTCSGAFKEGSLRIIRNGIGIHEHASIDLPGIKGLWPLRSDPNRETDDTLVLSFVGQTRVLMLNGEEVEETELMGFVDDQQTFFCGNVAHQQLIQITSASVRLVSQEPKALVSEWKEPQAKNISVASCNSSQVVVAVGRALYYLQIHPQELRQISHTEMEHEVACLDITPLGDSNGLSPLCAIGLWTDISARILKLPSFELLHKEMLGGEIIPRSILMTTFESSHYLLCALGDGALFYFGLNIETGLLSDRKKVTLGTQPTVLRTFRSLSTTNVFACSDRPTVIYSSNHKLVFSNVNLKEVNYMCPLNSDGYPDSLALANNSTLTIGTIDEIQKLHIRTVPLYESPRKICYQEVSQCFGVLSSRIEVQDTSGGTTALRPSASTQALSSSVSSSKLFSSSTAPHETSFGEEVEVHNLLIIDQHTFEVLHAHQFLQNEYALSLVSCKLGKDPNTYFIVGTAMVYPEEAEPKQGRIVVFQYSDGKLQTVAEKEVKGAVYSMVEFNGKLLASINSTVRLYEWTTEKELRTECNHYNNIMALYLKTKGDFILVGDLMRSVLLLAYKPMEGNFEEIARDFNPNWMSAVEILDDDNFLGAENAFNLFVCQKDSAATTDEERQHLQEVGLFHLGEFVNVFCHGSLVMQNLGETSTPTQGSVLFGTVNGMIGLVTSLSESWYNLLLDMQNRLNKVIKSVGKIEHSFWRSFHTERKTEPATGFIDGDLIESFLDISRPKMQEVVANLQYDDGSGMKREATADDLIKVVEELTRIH

Molecular target: Flag-DDB1 (damage-specific DNA-binding protein 1) (UniProt Q16531)
Assay: co-IP; 293T cells transfected with Flag-DDB1 and GST-HBx, with or without HA-CBFβ or HA-IFIT2 (control), collected 32 h later; lysis in 50 mM Tris-HCl pH 8.0, 150 mM NaCl, 1% NP-40; ANTI-FLAG M2 Affinity Gel overnight; immunoblot (Fig. 6b)

B1: Smc6 (protein, UniProt Q96SB8 1-1091)
chain: MAKRKEENFSSPKNAKRPRQEELEDFDKDGDEDECKGTTLTAAEVGIIESIHLKNFMCHSMLGPFKFGSNVNFVVGNNGSGKSAVLTALIVGLGGRAVATNRGSSLKGFVKDGQNSADISITLRNRGDDAFKASVYGNSILIQQHISIDGSRSYKLKSATGSVVSTRKEELIAILDHFNIQVDNPVSVLTQEMSKQFLQSKNEGDKYKFFMKATQLEQMKEDYSYIMETKERTKEQIHQGEERLTELKRQCVEKEERFQSIAGLSTMKTNLESLKHEMAWAVVNEIEKQLNAIRDNIKIGEDRAARLDRKMEEQQVRLNEAEQKYKDIQDKLEKISEETNARAPECMALKADVVAKKRAYNEAEVLYNRSLNEYKALKKDDEQLCKRIEELKKSTDQSLEPERLERQKKISWLKERVKAFQNQENSVNQEIEQFQQAIEKDKEEHGKIKREELDVKHALSYNQRQLKELKDSKTDRLKRFGPNVPALLEAIDDAYRQGHFTYKPVGPLGACIHLRDPELALAIESCLKGLLQAYCCHNHADERVLQALMKRFYLPGTSRPPIIVSEFRNEIYDVRHRAAYHPDFPTVLTALEIDNAVVANSLIDMRGIETVLLIKNNSVARAVMQSQKPPKNCREAFTADGDQVFAGRYYSSENTRPKFLSRDVDSEISDLENEVENKTAQILNLQQHLSALEKDIKHNEELLKRCQLHYKELKMKIRKNISEIRELENIEEHQSVDIATLEDEAQENKSKMKMVEEHMEQQKENMEHLKSLKIEAENKYDAIKFKINQLSELADPLKDELNLADSEVDNQKRGKRHYEEKQKEHLDTLNKKKRELDMKEKELEEKMSQARQICPERIEVEKSASILDKEINRLRQKIQAEHASHGDREEIMRQYQEARETYLDLDSKVRTLKKFIKLLGEIMEHRFKTYQQFRRCLTLRCKLYFDNLLSQRAYCGKMNFDHKNETLSISVQPGEGNKAAFNDMRALSGGERSFSTVCFILSLWSIAESPFRCLDEFDVYMDMVNRRIAMDLILKMADSQRFRQFILLTPQSMSSLPSSKLIRILRMSDPERGQTTLPFRPVTQEEDDDQR
- binding: binds
